Some of the results follow.
Key:
Assay in all cases: log2 fold change, soluble protein after heating vs DMSO (PISA); higher = thermal stabilisation; K562 lysate, 10 uM; active = over 0.2 and 3.5 SD of the protein, either way, in both replicates (recomputed)
[1] = compound: Cc1cn(-c2cc(NC(=O)c3ccc(C)c(Nc4nccc(-c5cccnc5)n4)c3)cc(C(F)(F)F)c2)cn1 [nilotinib]
Summary of the method: (§1)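 Values give the log-two fold change in thermal stability against solvent controls, from duplicates. Crude K562 extract at 1 mg/mL protein, made by dounce homogenisation in PBS pH 7.4 with 1 mM MgCl2, was treated with 10 μM compound for 30 min. After 3 min heating across 48°C-58°C, aliquots were pooled, adjusted to 0.5% NP-40 at 4°C and centrifuged at 21,000xg for 90 min. The supernatant was measured by TMTpro 16plex LC-MS/MS with channel sums equalised.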

Sequences of proteins named here, by UniProt entry; tags and fusion partners are left off. A change or cut given only in a name is not applied to a line headed by its entry.
UniProt O95544: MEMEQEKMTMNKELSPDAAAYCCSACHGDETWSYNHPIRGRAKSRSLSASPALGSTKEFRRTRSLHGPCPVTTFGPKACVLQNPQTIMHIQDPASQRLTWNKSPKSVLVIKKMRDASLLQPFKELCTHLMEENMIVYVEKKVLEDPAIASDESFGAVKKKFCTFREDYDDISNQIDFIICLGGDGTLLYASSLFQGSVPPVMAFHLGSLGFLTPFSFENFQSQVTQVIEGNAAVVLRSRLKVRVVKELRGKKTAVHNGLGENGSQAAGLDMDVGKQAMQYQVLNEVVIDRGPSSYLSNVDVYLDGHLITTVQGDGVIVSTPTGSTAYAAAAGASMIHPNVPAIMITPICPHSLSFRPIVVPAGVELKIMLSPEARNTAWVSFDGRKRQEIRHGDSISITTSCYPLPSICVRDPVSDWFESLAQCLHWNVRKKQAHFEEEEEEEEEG
UniProt Q14CX7, whole entry, looked up: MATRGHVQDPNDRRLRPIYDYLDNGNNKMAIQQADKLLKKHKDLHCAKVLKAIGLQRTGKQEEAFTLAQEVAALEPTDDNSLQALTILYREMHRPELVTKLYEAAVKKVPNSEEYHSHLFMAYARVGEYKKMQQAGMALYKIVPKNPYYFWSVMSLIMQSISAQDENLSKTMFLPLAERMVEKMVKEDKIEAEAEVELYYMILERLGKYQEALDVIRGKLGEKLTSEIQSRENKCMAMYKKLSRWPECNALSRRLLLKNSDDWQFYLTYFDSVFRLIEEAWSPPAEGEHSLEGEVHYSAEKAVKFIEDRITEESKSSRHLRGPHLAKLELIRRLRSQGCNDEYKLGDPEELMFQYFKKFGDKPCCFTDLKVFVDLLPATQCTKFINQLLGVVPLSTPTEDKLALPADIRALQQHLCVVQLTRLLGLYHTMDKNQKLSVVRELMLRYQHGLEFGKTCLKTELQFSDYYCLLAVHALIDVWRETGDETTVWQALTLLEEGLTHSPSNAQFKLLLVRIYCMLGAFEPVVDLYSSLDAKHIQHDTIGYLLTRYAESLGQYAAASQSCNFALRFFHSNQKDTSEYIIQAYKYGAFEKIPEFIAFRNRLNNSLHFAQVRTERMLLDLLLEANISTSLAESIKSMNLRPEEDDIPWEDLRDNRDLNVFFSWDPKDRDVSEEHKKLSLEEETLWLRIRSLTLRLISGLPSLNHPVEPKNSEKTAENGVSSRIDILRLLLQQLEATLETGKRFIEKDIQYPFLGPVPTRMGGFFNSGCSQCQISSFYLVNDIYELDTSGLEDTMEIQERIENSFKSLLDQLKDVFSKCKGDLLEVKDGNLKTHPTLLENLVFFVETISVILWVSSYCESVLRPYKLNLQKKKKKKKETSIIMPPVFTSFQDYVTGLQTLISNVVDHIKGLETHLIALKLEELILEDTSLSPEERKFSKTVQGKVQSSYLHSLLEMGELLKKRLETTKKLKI
UniProt P55209: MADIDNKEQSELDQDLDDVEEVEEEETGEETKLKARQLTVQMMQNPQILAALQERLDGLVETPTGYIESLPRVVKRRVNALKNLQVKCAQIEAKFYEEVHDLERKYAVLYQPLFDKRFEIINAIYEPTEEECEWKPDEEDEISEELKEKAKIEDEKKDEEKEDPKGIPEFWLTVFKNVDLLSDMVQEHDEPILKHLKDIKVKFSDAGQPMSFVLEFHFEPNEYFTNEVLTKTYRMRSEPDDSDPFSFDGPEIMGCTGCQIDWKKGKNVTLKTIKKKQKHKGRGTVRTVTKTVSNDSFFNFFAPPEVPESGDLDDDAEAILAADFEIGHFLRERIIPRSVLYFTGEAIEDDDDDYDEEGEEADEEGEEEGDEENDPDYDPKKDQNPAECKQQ
UniProt O60934: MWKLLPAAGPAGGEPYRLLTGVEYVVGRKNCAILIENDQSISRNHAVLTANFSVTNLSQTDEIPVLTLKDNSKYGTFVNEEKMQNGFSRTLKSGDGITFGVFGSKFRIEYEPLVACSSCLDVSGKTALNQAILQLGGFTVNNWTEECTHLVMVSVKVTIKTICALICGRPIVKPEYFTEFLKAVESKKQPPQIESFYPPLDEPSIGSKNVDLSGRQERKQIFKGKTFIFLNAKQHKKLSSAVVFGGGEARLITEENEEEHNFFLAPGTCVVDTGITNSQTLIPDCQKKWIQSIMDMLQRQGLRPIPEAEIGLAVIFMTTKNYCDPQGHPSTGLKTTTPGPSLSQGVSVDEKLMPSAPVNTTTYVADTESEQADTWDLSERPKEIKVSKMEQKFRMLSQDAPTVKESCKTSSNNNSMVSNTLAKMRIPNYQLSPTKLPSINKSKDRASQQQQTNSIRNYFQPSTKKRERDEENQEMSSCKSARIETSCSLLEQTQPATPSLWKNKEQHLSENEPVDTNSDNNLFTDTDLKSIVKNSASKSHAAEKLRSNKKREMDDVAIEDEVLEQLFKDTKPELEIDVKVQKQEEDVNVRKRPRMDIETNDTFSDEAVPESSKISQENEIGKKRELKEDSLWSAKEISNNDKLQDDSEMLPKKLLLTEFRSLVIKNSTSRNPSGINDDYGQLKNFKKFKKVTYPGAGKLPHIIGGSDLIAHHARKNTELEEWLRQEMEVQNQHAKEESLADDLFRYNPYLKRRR
UniProt Q9BQ15: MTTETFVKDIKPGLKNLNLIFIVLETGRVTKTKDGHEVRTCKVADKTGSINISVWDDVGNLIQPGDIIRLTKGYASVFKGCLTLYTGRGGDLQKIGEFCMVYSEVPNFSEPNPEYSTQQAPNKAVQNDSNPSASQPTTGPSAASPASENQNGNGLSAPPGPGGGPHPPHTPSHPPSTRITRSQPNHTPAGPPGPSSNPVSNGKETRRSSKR
UniProt O75376, whole entry, looked up: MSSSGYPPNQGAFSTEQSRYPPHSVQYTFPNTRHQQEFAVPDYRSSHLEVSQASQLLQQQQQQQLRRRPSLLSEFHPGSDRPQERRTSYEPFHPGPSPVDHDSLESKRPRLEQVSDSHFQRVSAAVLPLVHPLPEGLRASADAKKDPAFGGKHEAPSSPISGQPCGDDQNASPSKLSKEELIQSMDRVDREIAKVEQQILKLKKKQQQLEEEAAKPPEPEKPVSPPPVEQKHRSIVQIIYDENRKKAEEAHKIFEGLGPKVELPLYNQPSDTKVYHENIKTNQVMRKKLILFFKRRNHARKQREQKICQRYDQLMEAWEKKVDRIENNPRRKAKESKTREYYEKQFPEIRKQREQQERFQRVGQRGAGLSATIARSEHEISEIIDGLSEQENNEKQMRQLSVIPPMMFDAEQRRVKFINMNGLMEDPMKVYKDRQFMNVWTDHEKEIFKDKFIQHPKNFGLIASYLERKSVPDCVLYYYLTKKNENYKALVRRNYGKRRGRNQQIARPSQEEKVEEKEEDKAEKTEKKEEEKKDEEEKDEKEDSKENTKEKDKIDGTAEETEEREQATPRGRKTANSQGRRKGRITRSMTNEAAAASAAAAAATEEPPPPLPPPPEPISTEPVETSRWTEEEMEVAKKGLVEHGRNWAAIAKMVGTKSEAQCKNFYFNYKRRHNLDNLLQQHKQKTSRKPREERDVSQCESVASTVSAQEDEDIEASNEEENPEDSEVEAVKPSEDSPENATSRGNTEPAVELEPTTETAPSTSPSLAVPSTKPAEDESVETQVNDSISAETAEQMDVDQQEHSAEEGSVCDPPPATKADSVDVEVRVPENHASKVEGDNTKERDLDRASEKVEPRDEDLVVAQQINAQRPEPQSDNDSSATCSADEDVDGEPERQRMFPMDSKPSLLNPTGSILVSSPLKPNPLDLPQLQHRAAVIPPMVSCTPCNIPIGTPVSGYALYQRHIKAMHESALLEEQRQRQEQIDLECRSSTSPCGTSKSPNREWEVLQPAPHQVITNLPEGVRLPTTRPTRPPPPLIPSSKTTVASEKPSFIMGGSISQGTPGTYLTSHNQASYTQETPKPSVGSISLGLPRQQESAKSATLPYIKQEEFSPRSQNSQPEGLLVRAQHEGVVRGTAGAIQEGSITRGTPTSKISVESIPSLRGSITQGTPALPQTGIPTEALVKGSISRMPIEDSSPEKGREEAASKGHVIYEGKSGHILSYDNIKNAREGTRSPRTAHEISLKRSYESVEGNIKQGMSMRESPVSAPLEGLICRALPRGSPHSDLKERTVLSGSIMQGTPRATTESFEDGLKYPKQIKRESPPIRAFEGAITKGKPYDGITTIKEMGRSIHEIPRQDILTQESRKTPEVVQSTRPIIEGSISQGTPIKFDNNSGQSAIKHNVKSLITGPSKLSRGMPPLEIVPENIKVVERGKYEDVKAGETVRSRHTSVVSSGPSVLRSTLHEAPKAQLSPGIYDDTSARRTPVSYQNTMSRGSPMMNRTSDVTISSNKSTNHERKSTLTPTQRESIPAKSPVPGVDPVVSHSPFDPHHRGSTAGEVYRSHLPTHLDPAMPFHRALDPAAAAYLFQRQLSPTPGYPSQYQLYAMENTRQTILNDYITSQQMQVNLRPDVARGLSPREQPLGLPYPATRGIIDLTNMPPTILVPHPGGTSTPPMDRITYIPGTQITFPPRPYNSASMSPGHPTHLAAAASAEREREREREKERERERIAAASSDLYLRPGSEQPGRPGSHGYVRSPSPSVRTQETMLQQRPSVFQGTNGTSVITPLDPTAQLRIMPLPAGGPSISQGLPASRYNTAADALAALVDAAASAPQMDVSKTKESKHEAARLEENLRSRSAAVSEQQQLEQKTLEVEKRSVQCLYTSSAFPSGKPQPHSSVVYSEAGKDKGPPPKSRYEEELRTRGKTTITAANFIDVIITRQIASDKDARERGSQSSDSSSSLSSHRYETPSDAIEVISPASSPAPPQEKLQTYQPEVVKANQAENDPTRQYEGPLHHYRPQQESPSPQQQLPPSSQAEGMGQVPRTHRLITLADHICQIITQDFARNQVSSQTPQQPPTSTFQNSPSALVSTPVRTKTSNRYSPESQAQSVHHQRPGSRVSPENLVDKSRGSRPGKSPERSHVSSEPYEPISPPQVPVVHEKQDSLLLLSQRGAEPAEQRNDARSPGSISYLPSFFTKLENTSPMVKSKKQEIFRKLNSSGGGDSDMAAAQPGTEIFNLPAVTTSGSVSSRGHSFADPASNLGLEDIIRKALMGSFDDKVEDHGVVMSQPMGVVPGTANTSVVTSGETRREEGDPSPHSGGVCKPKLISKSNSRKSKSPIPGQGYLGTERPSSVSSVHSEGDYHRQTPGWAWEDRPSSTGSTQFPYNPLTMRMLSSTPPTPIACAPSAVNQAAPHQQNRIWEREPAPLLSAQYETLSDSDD
UniProt Q13564: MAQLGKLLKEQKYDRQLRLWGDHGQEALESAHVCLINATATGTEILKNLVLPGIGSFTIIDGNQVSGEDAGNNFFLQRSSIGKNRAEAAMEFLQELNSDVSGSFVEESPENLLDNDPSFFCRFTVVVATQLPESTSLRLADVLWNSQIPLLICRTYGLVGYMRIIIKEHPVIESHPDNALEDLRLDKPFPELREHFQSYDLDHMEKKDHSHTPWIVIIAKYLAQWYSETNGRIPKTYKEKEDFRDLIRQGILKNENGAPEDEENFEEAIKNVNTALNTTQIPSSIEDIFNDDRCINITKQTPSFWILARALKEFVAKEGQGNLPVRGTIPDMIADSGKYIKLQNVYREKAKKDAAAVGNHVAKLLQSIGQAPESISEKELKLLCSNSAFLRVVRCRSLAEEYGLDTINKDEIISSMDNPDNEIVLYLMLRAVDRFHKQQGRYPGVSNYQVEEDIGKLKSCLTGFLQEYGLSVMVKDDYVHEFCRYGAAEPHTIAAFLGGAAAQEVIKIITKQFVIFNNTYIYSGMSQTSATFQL
UniProt P17050: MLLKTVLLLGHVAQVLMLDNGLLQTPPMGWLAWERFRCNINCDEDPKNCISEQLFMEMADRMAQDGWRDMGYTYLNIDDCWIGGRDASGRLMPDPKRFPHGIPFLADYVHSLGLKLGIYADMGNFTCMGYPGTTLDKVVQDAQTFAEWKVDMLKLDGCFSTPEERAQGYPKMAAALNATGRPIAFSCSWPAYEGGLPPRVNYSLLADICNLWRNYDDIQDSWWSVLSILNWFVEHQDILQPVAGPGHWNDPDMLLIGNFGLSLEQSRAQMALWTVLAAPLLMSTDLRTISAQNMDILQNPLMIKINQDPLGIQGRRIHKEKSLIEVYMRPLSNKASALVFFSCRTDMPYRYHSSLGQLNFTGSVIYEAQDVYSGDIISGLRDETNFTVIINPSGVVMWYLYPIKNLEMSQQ

[2] = compound: Cc1nc(Nc2n[nH]c3c2CN(C(=O)N[C@H](CN(C)C)c2ccccc2)C3(C)C)c2sccc2n1
Summary of the method: as §1

[3] = compound: Cc1nc(Nc2ncc(C(=O)Nc3c(C)cccc3Cl)s2)cc(N2CCN(CCO)CC2)n1 [dasatinib]
Summary of the method: as §1

[4] = compound: Cc1ncc(-c2ccnc(Nc3ccc(S(C)(=O)=O)cc3)n2)n1C(C)C
Summary of the method: as §1

[5] = compound: Cn1cc(-c2ccc3c(c2)CCN3C(=O)Cc2cccc(C(F)(F)F)c2)c2c(N)ncnc21
Summary of the method: as §1

[6] = compound: Cn1cc(CNCC2CCN(c3ncc(C(=O)NO)cn3)CC2)c2ccccc21 [quisinostat]
Summary of the method: as §1

[7] = compound: Cn1cncc1[C@@](N)(c1ccc(Cl)cc1)c1ccc2c(c1)c(-c1cccc(Cl)c1)cc(=O)n2C [tipifarnib]
Summary of the method: as §1

[8] = compound: NC(=O)Nc1cc(-c2cccc(F)c2)sc1C(=O)N[C@H]1CCCNC1
Summary of the method: as §1

[9] = compound: NC(=O)c1cnc(N[C@@H]2CCCC[C@@H]2N)nc1Nc1cccc(-n2nccn2)c1
Summary of the method: as §1

[10] = compound: NC1(c2ccc(-c3nc4ccn5c(=O)[nH]nc5c4cc3-c3ccccc3)cc2)CCC1
Summary of the method: as §1

[11] = compound: NCC(=O)Nc1ccc(-n2nc(C(F)(F)F)cc2-c2ccc3c(ccc4ccccc43)c2)cc1
Summary of the method: as §1

[12] = compound: O=C(CCCCCCC(=O)Nc1ccccc1)NO [vorinostat]
Summary of the method: as §1

[13] = compound: O=C(O)c1ccc2c(c1)nc(Nc1cccc(Cl)c1)c1ccncc12 [silmitasertib]
Summary of the method: as §1

[14] = compound: O=C1NC(=O)C(c2cnc3ccccn23)=C1c1cn2c3c(cc(F)cc13)CN(C(=O)N1CCCCC1)CC2
Summary of the method: as §1

[15] = compound: c1cn2cc(-c3ccc4cn[nH]c4c3)nc(Nc3ccc(N4CCOCC4)cc3)c2n1 [entospletinib]
Summary of the method: as §1

Target	log2 fold change [1]	log2 fold change [2]	log2 fold change [3]	log2 fold change [4]	log2 fold change [5]	log2 fold change [6]	log2 fold change [7]	log2 fold change [8]	log2 fold change [9]	log2 fold change [10]	log2 fold change [11]	log2 fold change [12]	log2 fold change [13]	log2 fold change [14]	log2 fold change [15]
NADK (UniProt O95544)	inactive: -0.024	inactive: 0	inactive: 0.03	inactive: 0.005	inactive: -0.026	inactive: -0.004	inactive: 0.002	inactive: -0.039	inactive: -0.044	inactive: 0.025	inactive: 0.012	inactive: 0.05	inactive: -0.049	inactive: 0.013	inactive: -0.042
NAA25 (UniProt Q14CX7)	inactive: 0	inactive: -0.017	inactive: -0.034	inactive: -0.008	inactive: 0	inactive: 0.033	inactive: 0.015	inactive: 0.008	inactive: -0.013	inactive: -0.006	inactive: -0.022	inactive: 0.053	inactive: 0.011	inactive: -0.011	inactive: -0.017
NAP1L1 (UniProt P55209)	inactive: 0.036	inactive: -0.017	inactive: 0.028	inactive: -0.062	inactive: 0.004	inactive: 0.008	inactive: -0.024	inactive: -0.001	inactive: 0.035	inactive: 0.007	inactive: -0.021	inactive: 0.101	inactive: -0.01	inactive: 0.006	inactive: -0.014
NCKAP1L (UniProt P55160)	inactive: 0.001	inactive: -0.017	inactive: -0.034	inactive: 0.072	inactive: 0.005	inactive: -0.034	inactive: 0.032	inactive: 0.055	inactive: 0.017	inactive: 0.023	inactive: 0.288	active: -0.444	inactive: -0.039	inactive: -0.001	inactive: 0.029
MYO18A (UniProt Q92614)	inactive: 0.016	inactive: -0.011	inactive: -0.004	inactive: 0.009	inactive: 0.015	inactive: -0.031	inactive: 0.011	inactive: -0.016	inactive: 0.002	inactive: -0.01	inactive: 0.009	inactive: 0	inactive: -0.027	inactive: -0.014	inactive: -0.003
NBN (UniProt O60934)	inactive: 0.004	inactive: 0.013	inactive: -0.019	inactive: 0.037	inactive: 0.03	inactive: 0.011	inactive: 0.005	inactive: 0.046	inactive: -0.024	inactive: -0.015	inactive: -0.009	active: -0.21	inactive: 0.023	inactive: -0.008	inactive: -0.005
NABP2 (UniProt Q9BQ15)	inactive: -0.033	inactive: -0.022	inactive: 0.024	inactive: -0.029	inactive: 0.138	inactive: -0.112	inactive: 0.01	inactive: 0.071	inactive: 0.01	inactive: -0.046	inactive: 0.026	inactive: -0.036	inactive: -0.002	inactive: -0.025	inactive: 0.021
NCAPG (UniProt Q9BPX3)	inactive: 0.01	inactive: 0.002	inactive: -0.062	inactive: 0	inactive: 0.007	inactive: -0.08	inactive: 0	inactive: 0.012	inactive: -0.004	inactive: -0.019	inactive: -0.001	active: -0.283	inactive: 0.029	inactive: -0.003	inactive: -0.002
NCOR1 (UniProt O75376)	inactive: 0.006	inactive: 0.012	inactive: -0.031	inactive: -0.019	inactive: 0.008	inactive: -0.064	inactive: -0.046	inactive: 0.021	inactive: 0.029	inactive: 0.003	inactive: 0.021	active: -0.239	inactive: -0.035	inactive: 0.014	inactive: -0.01
NAE1 (UniProt Q13564)	inactive: 0.025	inactive: 0.011	inactive: 0.003	inactive: -0.014	inactive: 0.001	inactive: -0.021	inactive: -0.002	inactive: 0.019	inactive: 0.012	inactive: -0.03	inactive: 0.022	inactive: 0.007	inactive: -0.02	inactive: -0.034	inactive: -0.002
NAGA (UniProt P17050)	inactive: -0.019	inactive: -0.04	inactive: -0.033	inactive: -0.1	inactive: -0.032	inactive: 0.003	inactive: 0.036	inactive: -0.004	inactive: -0.024	inactive: 0.008	inactive: -0.04	inactive: 0.062	inactive: -0.03	inactive: -0.015	inactive: -0.024

Quoted from the listing:
For log2 fold change [13], NCAPG (UniProt Q9BPX3) shows inactive: 0.029
For log2 fold change [13], NAGA (UniProt P17050) shows inactive: -0.03

From the supplement of paper PMC10849652
